Reference: patent US8933195B2, “Histone deacetylase inhibitors and synthetic method thereof and use thereof in manufacture of medicaments” (Nanjing Yoko Biomedical R & D Ltd., priority 2011, dated 2015)

Assays:
Assay in all cases: Subcutaneously transplanted tumors in nude mice
Human Melanoma Cell A875 = format: in vivo; details: 50 mg/kg
Experimental: (§1) Tumor tissues in the vigorous growth period are cut into about 1.5 mm^3, and inoculated to the right axilla subcutaneous layer of the nude mice under aseptic conditions. For the subcutaneously transplanted tumors of the nude mice, the diameter of the transplanted tumors is measured by a vernier caliper. The mice are randomly grouped after the tumors grow to 100-200 mm^3. 20 mg/kg, 10 mg/kg and 5 mg/kg of the compound 1-3 is administrated to the mice by caudal veins three times each week, for three successive weeks. 50 mg/kg of positive control pharmaceutical SAHA is administrated to the mice once every day, for three successive weeks. The diameter of the transplanted tumors is measured twice per week in the whole experimental process, and meanwhile the weight of the mice is weighed. The calculation formula of tumor volume (TV) is TV=½×a×b^2, where a and b represent length and width, respectively.
(§2) The relative tumor volume (RTV) is calculated according to the measured results, with the following calculation formula: RTV=Vt/V0, where V0 is the tumor volume obtained by measurement during administration in different cages (i.e., d0), Vt is the tumor volume obtained by measurement at each time. The evaluation indexes of the antitumor activity are: 1) the relative tumor proliferation ratio T/C (%), the calculation formula of the relative tumor proliferation ratio is as follows: T/C(%)=(TRTV/CRTV)×100%, where TRTV is the treatment group RTV, and CRTV is the negative control group RTV; 2) the tumor volume growth inhibition ratio GI %, the calculation formula of the tumor volume growth inhibition ratio is as follows: GI %=[1−(TVt−TV0)/(CVt−CT0)]×100%, where TVt is the tumor volume of the treatment group measured at each time, TV0 is the tumor volume of the treatment group obtained during administration in different cages, CVt is the tumor volume of the control group measured at each time, and CV0 is the tumor volume of the control group obtained during administration in different cages; and 3) the tumor weight inhibition ratio, the calculation formula of the tumor weight inhibition ratio is as follows: the tumor weight inhibition ratio. (Wc−WT)Wc×100%, where Wc is the tumor weight of the control group, and WT is the tumor weight of the treatment group.
(§3) The experimental methods are the same as Embodiment 100. Solvents, SAHA (50 mg/kg), the compound 1-3 (20 mg/kg), the compound 1-6 (20 mg/kg) and the compound 1-8 (20 mg/kg) are administrated to mice with different tumors, respectively. The tumor inhibition rates are calculated according to the methods in Embodiment 100.

[1] = test system: Human Lung Caner Cell NCI-H1975; format: in vivo; details: 50 mg/kg
Experimental: as §1, §2, §3

[2] = test system: Human Blood Acute Monocytic Leukemia U937; format: in vivo; details: 50 mg/kg
Experimental: as §1, §2, §3

[3] = test system: Human Gastric Adenocarcinoma Cell BGC-823; format: in vivo; details: 50 mg/kg
Experimental: as §1, §2, §3

[4] = test system: Human Lymphoma Cell Ramos; format: in vivo; details: 50 mg/kg
Experimental: as §1, §2, §3

[5] = test system: human colon cancer HCT-116; format: in vivo, BALB/cA nude mice; details: 50 mg/kg qd × 3w iv, after three weeks
Experimental: The compound 1-3 is powder and includes three dosage groups: 20 mg/kg, 10 mg/kg and 5 mg/kg. The commercially available Zolinza (SAHA) is used as a positive control. The solvents are isopropanol and anhydrous ethanol (mixed in the volume ratio of 1:1). The test sample is dissolved with solvents and physiological saline in the ratio of 1:1 for use, and the above solvents and physiological saline are dissolved in the ratio of 1:1 as a negative control.
The subjects are female BALB/cA nude mice with the weight of 16±2 g and at the age of 4-5 weeks, purchased from Shanghai Institute of Materia Medica, Chinese Academy of Sciences (production certificate NO. SCXK (Shanghai) 2008-0017). […]
Tumor tissues in the vigorous growth period are cut into about 1.5 mm^3, and inoculated to the right axilla subcutaneous layer of the nude mice under aseptic conditions. For the subcutaneously transplanted tumors of the nude mice, the diameter of the transplanted tumors is measured by a vernier caliper. […] The diameter of the transplanted tumors is measured twice per week in the whole experimental process, and meanwhile the weight of the mice is weighed. […]
The experimental methods and processes are the same as Embodiment 100. […] The tumor inhibition rate is calculated according to the method in Embodiment 100.

O=C(CCCCCCC(=O)Nc1ccccc1)NO [SAHA, suberoylanilide hydroxamic acid, reference compound]
Tumor Inhibition Rate (1 − T/C) × 100% (Human Melanoma Cell A875): 62.01% | Tumor Inhibition Rate (1 − T/C) × 100% [1]: 58.03% | Tumor Inhibition Rate (1 − T/C) × 100% [2]: 63.22% | Tumor Inhibition Rate (1 − T/C) × 100% [3]: 54.89% | Tumor Inhibition Rate (1 − T/C) × 100% [4]: 57.81% | 1-T/C tumor inhibition rate ([5]; Table 1.1): 52.99% | 1-T/C tumor inhibition rate ([5]; Table 2.1): 56.32%
